Assay results taken from patent publication US20210032350A1 (Memorial Sloan Kettering, published 2021).
Results are given in words; binding and its absence hold for the method and conditions named. Some binding calls cover weakened binding; strength is not graded here.

Sequences of proteins named here, by UniProt entry; tags and fusion partners are left off. A change or cut given only in a name is not applied to a line headed by its entry.
UniProt P17931: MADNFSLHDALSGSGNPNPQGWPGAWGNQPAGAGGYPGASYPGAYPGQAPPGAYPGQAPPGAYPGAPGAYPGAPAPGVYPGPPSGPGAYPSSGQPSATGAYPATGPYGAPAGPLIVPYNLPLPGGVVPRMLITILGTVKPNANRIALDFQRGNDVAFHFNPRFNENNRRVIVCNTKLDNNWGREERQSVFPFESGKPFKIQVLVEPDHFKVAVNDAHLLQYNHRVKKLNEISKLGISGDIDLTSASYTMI

Assays:
[1] = molecular target: polyhistidine-tagged LGALS3 (human) (UniProt P17931); assay: ELISA, nickel-coated plate with polyhistidine-tagged LGALS3
[2] = molecular target: polyhistidine-tagged LGALS3 (human) (UniProt P17931); assay: ELISA, nickel-coated plate, His-tagged LGALS3 500 ng/well, goat anti-mouse IgG1-HRP

binding [1]: binds
binding [2]: binds
B1: 112516.14D11.2D2 (antibody, V domains shown)
VH: QVQLKESGPGLVAPSQSLSITCTISGFSLSSYGVHWVRQPPGKGLEWLVVIWSDGSTTYNSTLKSRLSISKDNSKSQVFLKMNSLQTDDTAMYYCARHISNYGTMDYWGQGTSVTVS
VL: DIQMTQTTSSLSASLGDRVTISCRASQDIRNYLNWYQQKPDGSIKLLIYYTSRLHSGVPSRFSGSGSGTDYSLTIRNLEQEDIATYFCQHFNTLPPTFGGGTKLEIK
